From US20160032013A1
Results are given in words; binding and its absence hold for the method and conditions named. Some binding calls cover weakened binding; strength is not graded here.

The chains behind the UniProt entries cited, without tags or fusion partners. Where a name states a change or a piece, a line headed by the entry shows the natural chain unless it says otherwise.
UniProt P26928: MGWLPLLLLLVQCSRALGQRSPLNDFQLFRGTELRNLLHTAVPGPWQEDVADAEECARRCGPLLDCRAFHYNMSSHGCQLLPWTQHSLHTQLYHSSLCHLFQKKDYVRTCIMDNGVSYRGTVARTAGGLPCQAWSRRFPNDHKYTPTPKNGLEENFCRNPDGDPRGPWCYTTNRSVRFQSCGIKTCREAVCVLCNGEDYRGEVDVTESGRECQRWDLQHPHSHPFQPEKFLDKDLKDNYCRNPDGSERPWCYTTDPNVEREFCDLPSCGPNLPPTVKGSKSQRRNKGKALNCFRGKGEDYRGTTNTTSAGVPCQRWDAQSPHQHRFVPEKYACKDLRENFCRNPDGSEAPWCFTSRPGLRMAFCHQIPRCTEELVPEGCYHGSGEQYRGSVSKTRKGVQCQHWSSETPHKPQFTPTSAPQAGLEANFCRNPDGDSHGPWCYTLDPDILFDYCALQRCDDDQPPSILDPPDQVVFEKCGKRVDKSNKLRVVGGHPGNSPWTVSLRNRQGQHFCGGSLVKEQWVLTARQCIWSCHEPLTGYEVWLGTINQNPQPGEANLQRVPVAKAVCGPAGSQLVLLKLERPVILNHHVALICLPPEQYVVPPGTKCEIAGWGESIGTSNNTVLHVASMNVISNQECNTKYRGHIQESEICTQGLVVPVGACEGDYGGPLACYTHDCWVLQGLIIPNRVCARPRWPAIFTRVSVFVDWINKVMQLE

Target: Mouse RON-hIgG1 Fc (murine RON Sema/PSI/IPT1, natural leader + R33-V684, fused to human IgG1 Fc) (mouse)
Experiment: plate ELISA: mRON-hFc coated at 2 ug/ml, His-tagged murine MSP β at 0.1 ug/ml, anti-His-HRP

binding: binds
Substance: Hexahistidine-tagged murine MSP β (HGF leader + V489-E716 + C593A + C677A + His tag) (from UniProt P26928 489-713) (ligand)
